Data reported in patent publication US20130045962A1, “PEPTIDE DEFORMYLASE INHIBITORS” (priority 2007, published 2013).
Some entries share one result that the patent states for a list of compounds.

By UniProt entry, the sequences of proteins in these tests, tags left out. Where a name states a change or a piece, a line headed by the entry shows the natural chain unless it says otherwise.
UniProt P44786: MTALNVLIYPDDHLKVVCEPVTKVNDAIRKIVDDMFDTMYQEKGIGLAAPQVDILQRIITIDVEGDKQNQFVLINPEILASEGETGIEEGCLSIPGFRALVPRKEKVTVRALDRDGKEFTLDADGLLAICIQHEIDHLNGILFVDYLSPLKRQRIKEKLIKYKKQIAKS

Molecular target: Haemophilus influenzae PDF (Haemophilus influenzae, UniProt P44786)
Experiment: PDF IC50 assay (FDH-coupled), H. influenzae PDF
Type: biochemical
Conditions: read-out: IC50, inhibition of H. influenzae PDF activity

Structure (SMILES)	IC50 [nM]
CCc1nc(NNC(=O)[C@H](CC2CCCC2)CN(O)C=O)c(F)c(N2CC[C@H](N(C)C)C2)n1 [Example 28, N-[(2R)-2-(Cyclopentylmethyl)-3-(2-{6-[(3S)-3-(dimethylamino)-1-pyrrolidinyl]-2-ethyl-5-fluoro-4-pyrimidinyl}hydrazino)-3-oxopropyl]-N-hydroxyformamide]	≤ 100
CCc1nc(NNC(=O)[C@H](CC2CCCC2)CN(O)C=O)c(F)c(N2CC[C@H](O)C2)n1 [Example 29, N-[(2R)-2-(Cyclopentylmethyl)-3-(2-{2-ethyl-5-fluoro-6-[(3S)-3-hydroxy-1-pyrrolidinyl]-4-pyrimidinyl}hydrazino)-3-oxopropyl]-N-hydroxyformamide]	≤ 100
CCc1nc(NNC(=O)[C@H](CC2CCCC2)CN(O)C=O)c(F)c(N2CC[C@@H](O)C2)n1 [Example 30, N-[(2R)-2-(Cyclopentylmethyl)-3-(2-{2-ethyl-5-fluoro-6-[(3R)-3-hydroxy-1-pyrrolidinyl]-4-pyrimidinyl}hydrazino)-3-oxopropyl]-N-hydroxyformamide]	≤ 100
CCc1nc(NNC(=O)[C@H](CC2CCCC2)CN(O)C=O)c(F)c(NC2CC2)n1 [Example 31, N-[(2R)-2-(Cyclopentylmethyl)-3-{2-[6-(cyclopropylamino)-2-ethyl-5-fluoro-4-pyrimidinyl]hydrazino}-3-oxopropyl]-N-hydroxyformamide]	≤ 100
CCc1nc(NNC(=O)[C@H](CC2CCCC2)CN(O)C=O)c(F)c(N2CCN(CC)CC2)n1 [Example 32, N-[(2R)-2-(Cyclopentylmethyl)-3-{2-[2-ethyl-6-(4-ethyl-1-piperazinyl)-5-fluoro-4-pyrimidinyl]hydrazino}-3-oxopropyl]-N-hydroxyformamide]	≤ 100
CCc1nc(NNC(=O)[C@H](CC2CCCC2)CN(O)C=O)c(F)c(N2CCN(CCO)CC2)n1 [Example 33, N-[(2R)-2-(Cyclopentylmethyl)-3-(2-{2-ethyl-5-fluoro-6-[4-(2-hydroxyethyl)-1-piperazinyl]-4-pyrimidinyl}hydrazino)-3-oxopropyl]-N-hydroxyformamide]	≤ 100
CCc1nc(NC)c(F)c(NNC(=O)[C@H](CC2CCCC2)CN(O)C=O)n1 [Example 34, N-[(2R)-2-(Cyclopentylmethyl)-3-{2-[2-ethyl-5-fluoro-6-(methylamino)-4-pyrimidinyl]hydrazino}-3-oxopropyl]-N-hydroxyformamide]	≤ 100
CCNc1nc(CC)nc(NNC(=O)[C@H](CC2CCCC2)CN(O)C=O)c1F [Example 35, N-[(2R)-2-(Cyclopentylmethyl)-3-{2-[2-ethyl-6-(ethylamino)-5-fluoro-4-pyrimidinyl]hydrazino}-3-oxopropyl]-N-hydroxyformamide]	≤ 100
CCc1nc(NNC(=O)[C@H](CC2CCCC2)CN(O)C=O)c(F)c(N2CCN(C(C)C)CC2)n1 [Example 36, N-[(2R)-2-(Cyclopentylmethyl)-3-(2-{2-ethyl-5-fluoro-6-[4-(1-methylethyl)-1-piperazinyl]-4-pyrimidinyl}hydrazino)-3-oxopropyl]-N-hydroxyformamide]	≤ 100
CCc1nc(NNC(=O)[C@H](CC2CCCC2)CN(O)C=O)c(F)c(N2CCC[C@H]2C(=O)N(C)C)n1 [Example 37, 1-(6-{2-[(2R)-3-Cyclopentyl-2-{[formyl(hydroxy)amino]methyl}propanoyl]hydrazino}-2-ethyl-5-fluoro-4-pyrimidinyl)-N,N-dimethyl-L-prolinamide]	≤ 100
CCc1nc(NNC(=O)[C@H](CC2CCCC2)CN(O)C=O)c(F)c(N(C)CCN(C)C)n1 [Example 38, N-{(2R)-2-(Cyclopentylmethyl)-3-[2-(6-{[2-(dimethylamino)ethyl](methyl)amino}-2-ethyl-5-fluoro-4-pyrimidinyl)hydrazino]-3-oxopropyl}-N-hydroxyformamide]	≤ 100
CCc1nc(NNC(=O)[C@H](CC2CCCC2)CN(O)C=O)c(F)c(N2CCN(C)[C@H](C)C2)n1 [Example 39, N-[(2R)-2-(Cyclopentylmethyl)-3-(2-{6-[(3R)-3,4-dimethyl-1-piperazinyl]-2-ethyl-5-fluoro-4-pyrimidinyl}hydrazino)-3-oxopropyl]-N-hydroxyformamide]	≤ 100
CCc1nc(NNC(=O)[C@H](CC2CCCC2)CN(O)C=O)c(F)c(N2CCN(C)[C@@H](C)C2)n1 [Example 40, N-[(2R)-2-(Cyclopentylmethyl)-3-(2-{6-[(3S)-3,4-dimethyl-1-piperazinyl]-2-ethyl-5-fluoro-4-pyrimidinyl}hydrazino)-3-oxopropyl]-N-hydroxyformamide]	≤ 100
CSc1nc(NNC(=O)[C@H](CC2CCCC2)CN(O)C=O)c(F)c(N2CCN(C)CC2)n1 [Example 41, ((2R)-2-(Cyclopentylmethyl)-3-{2-[5-fluoro-6-(4-methyl-1-piperazinyl)-2-(methylthio)-4-pyrimidinyl]hydrazino}-3-oxopropyl)hydroxyformamide]	≤ 100
CCNc1nc(SC)nc(NNC(=O)[C@H](CC2CCCC2)CN(O)C=O)c1F [Example 42, ((2R)-2-(Cyclopentylmethyl)-3-{2-[6-(ethylamino)-5-fluoro-2-(methylthio)-4-pyrimidinyl]hydrazino}-3-oxopropyl)hydroxyformamide]	≤ 100
CNc1nc(SC)nc(NNC(=O)[C@H](CC2CCCC2)CN(O)C=O)c1F [Example 43, ((2R)-2-(Cyclopentylmethyl)-3-{2-[5-fluoro-6-(methylamino)-2-(methylthio)-4-pyrimidinyl]hydrazino}-3-oxopropyl)hydroxyformamide]	≤ 100
CSc1nc(NNC(=O)[C@H](CC2CCCC2)CN(O)C=O)c(F)c(N2CC[C@H](O)C2)n1 [Example 44, ((2R)-2-(Cyclopentylmethyl)-3-{2-[5-fluoro-6-[(3S)-3-hydroxy-1-pyrrolidinyl]-2-(methylthio)-4-pyrimidinyl]hydrazino}-3-oxopropyl)hydroxyformamide]	≤ 100
CSc1nc(NNC(=O)[C@H](CC2CCCC2)CN(O)C=O)c(F)c(N(C)C)n1 [Example 45, ((2R)-2-(Cyclopentylmethyl)-3-{2-[6-(dimethylamino)-5-fluoro-2-(methylthio)-4-pyrimidinyl]hydrazino}-3-oxopropyl)hydroxyformamide]	≤ 100
CCCNc1nc(SC)nc(NNC(=O)[C@H](CC2CCCC2)CN(O)C=O)c1F [Example 46, ((2R)-2-(Cyclopentylmethyl)-3-{2-[5-fluoro-2-(methylthio)-6-(propylamino)-4-pyrimidinyl]hydrazino}-3-oxopropyl)hydroxyformamide]	≤ 100
COCCNc1nc(SC)nc(NNC(=O)[C@H](CC2CCCC2)CN(O)C=O)c1F [Example 47, ((2R)-2-(Cyclopentylmethyl)-3-{2-[5-fluoro-6-{[2-(methyloxy)ethyl]amino}-2-(methylthio)-4-pyrimidinyl]hydrazino}-3-oxopropyl)hydroxyformamide]	≤ 100
CSc1nc(NNC(=O)[C@H](CC2CCCC2)CN(O)C=O)c(F)c(N2CCC[C@H]2C(=O)N(C)C)n1 [Example 48, 1-[6-[2-((2R)-3-Cyclopentyl-2-{[formyl(hydroxy)amino]methyl}propanoyl)hydrazino]-5-fluoro-2-(methylthio)-4-pyrimidinyl]-N,N-dimethyl-L-prolinamide]	≤ 100
CSc1nc(NNC(=O)[C@H](CC2CCCC2)CN(O)C=O)c(F)c(N2CC[C@@H](O)C2)n1 [Example 49, ((2R)-2-(Cyclopentylmethyl)-3-{2-[5-fluoro-6-[(3R)-3-hydroxy-1-pyrrolidinyl]-2-(methylthio)-4-pyrimidinyl]hydrazino}-3-oxopropyl)hydroxyformamide]	≤ 100
CSc1nc(NNC(=O)[C@H](CC2CCCC2)CN(O)C=O)c(F)c(N2CC[C@@H](N(C)C)C2)n1 [Example 50, ((2R)-2-(Cyclopentylmethyl)-3-{2-[6-[(3R)-3-(dimethylamino)-1-pyrrolidinyl]-5-fluoro-2-(methylthio)-4-pyrimidinyl]hydrazino}-3-oxopropyl)hydroxyformamide]	≤ 100
CCN1CCN(c2nc(SC)nc(NNC(=O)[C@H](CC3CCCC3)CN(O)C=O)c2F)CC1 [Example 51, ((2R)-2-(Cyclopentylmethyl)-3-{2-[6-(4-ethyl-1-piperazinyl)-5-fluoro-2-(methylthio)-4-pyrimidinyl]hydrazino}-3-oxopropyl)hydroxyformamide]	≤ 100
O=CN(O)C[C@@H](CC1CCCC1)C(=O)NNc1nc(Cl)nc(N2CCOCC2)c1F [Example 52, [(2R)-3-{2-[2-Chloro-5-fluoro-6-(4-morpholinyl)-4-pyrimidinyl]hydrazino}-2-(cyclopentylmethyl)-3-oxopropyl]hydroxyformamide]	≤ 100
O=CN(O)C[C@@H](CC1CCCC1)C(=O)NNc1nc(Cl)nc(N2CCC2)c1F [Example 53, [(2R)-3-{2-[6-(1-Azetidinyl)-2-chloro-5-fluoro-4-pyrimidinyl]hydrazino}-2-(cyclopentylmethyl)-3-oxopropyl]hydroxyformamide]	≤ 100
CCN1CCN(c2nc(Cl)nc(NNC(=O)[C@H](CC3CCCC3)CN(O)C=O)c2F)CC1 [Example 54, [(2R)-3-{2-[2-Chloro-6-(4-ethyl-1-piperazinyl)-5-fluoro-4-pyrimidinyl]hydrazino}-2-(cyclopentylmethyl)-3-oxopropyl]hydroxyformamide]	≤ 100
CN(CCO)c1nc(Cl)nc(NNC(=O)[C@H](CC2CCCC2)CN(O)C=O)c1F [Example 55, [(2R)-3-(2-{2-Chloro-5-fluoro-6-[(2-hydroxyethyl)(methyl)amino]-4-pyrimidinyl}hydrazino)-2-(cyclopentylmethyl)-3-oxopropyl]hydroxyformamide]	≤ 100
COC1CN(c2nc(Cl)nc(NNC(=O)[C@H](CC3CCCC3)CN(O)C=O)c2F)C1 [Example 56, [(2R)-3-(2-{2-Chloro-5-fluoro-6-[3-(methyloxy)-1-azetidinyl]-4-pyrimidinyl}hydrazino)-2-(cyclopentylmethyl)-3-oxopropyl]hydroxyformamide]	≤ 100
COCCN(C)c1nc(Cl)nc(NNC(=O)[C@H](CC2CCCC2)CN(O)C=O)c1F [Example 57, [(2R)-3-[2-(2-Chloro-5-fluoro-6-{methyl[2-(methyloxy)ethyl]amino}-4-pyrimidinyl)hydrazino]-2-(cyclopentylmethyl)-3-oxopropyl]hydroxyformamide]	≤ 100
